Paper PMC10570377, “DARPins detect the formation of hetero-tetramers of p63 and p73 in epithelial tissues and in squamous cell carcinoma” (Cell Death & Disease, 2023)
No constants are given. Whether binding was seen depends on the method and setting. In cells and extracts the contact can be indirect. Binding can be weak; no strength is given.

Protein sequences, listed by entry. Tags and fused reporters are not part of them. Lines headed by an entry give the natural chain unless they say otherwise; changes in a name come on top.
UniProt O88898: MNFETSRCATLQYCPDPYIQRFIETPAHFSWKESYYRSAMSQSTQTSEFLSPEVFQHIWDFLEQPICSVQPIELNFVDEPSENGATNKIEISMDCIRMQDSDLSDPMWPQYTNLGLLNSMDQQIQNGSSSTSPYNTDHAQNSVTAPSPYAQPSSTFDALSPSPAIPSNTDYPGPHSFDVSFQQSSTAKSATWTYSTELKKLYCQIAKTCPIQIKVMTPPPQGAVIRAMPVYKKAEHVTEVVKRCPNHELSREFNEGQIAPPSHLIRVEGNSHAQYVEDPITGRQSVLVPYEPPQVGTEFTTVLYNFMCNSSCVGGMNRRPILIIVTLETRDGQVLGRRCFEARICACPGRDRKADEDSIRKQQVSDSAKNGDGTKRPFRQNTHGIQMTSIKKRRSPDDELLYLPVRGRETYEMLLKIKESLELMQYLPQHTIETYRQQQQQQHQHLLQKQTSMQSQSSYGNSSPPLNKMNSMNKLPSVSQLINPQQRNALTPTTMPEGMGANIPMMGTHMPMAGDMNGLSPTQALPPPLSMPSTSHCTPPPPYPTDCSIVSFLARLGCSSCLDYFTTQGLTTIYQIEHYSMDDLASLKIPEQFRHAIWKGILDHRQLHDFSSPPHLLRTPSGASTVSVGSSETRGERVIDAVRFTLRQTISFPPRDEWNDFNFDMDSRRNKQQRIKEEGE

T1: p73 (endogenous, mouse) (mouse (endogenous in skin and lung tumours)) (UniProt Q9JJP2)
T1 sequence: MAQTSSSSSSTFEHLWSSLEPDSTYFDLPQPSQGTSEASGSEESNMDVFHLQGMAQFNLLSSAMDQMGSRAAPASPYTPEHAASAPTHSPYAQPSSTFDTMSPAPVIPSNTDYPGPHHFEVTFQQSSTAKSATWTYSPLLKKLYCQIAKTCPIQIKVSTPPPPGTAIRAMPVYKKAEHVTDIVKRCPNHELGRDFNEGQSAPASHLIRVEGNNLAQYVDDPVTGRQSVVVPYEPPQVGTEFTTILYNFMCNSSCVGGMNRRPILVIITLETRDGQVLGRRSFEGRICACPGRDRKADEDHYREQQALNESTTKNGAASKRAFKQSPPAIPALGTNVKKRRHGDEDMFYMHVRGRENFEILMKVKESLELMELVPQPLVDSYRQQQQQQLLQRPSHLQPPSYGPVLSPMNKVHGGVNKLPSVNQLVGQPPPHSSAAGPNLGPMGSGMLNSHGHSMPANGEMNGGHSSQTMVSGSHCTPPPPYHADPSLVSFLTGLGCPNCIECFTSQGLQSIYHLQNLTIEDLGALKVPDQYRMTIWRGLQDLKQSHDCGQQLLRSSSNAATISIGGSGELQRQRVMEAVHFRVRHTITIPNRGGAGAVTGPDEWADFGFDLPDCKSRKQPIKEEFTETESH


Experiments:
[1] = target: T1, p73 (endogenous, mouse) (mouse (endogenous in skin and lung tumours)); experiment: co-IP; pan-p63 or pan-p73 antibody on protein G magnetic beads; tissue lysate of mouse skin; western blot
[2] = target: p63 (endogenous, mouse) (mouse (endogenous in skin and lung tumours)) (UniProt O88898); experiment: as above

| binding [1] | binding [2] | Molecule |
| --- | --- | --- |
| binds weakly | – | p63 (endogenous, mouse) (from UniProt O88898-2) |
| – | binds | p73 (endogenous, mouse) (protein, UniProt Q9JJP2 1-631) MAQTSSSSSSTFEHLWSSLEPDSTYFDLPQPSQGTSEASGSEESNMDVFHLQGMAQFNLLSSAMDQMGSRAAPASPYTPEHAASAPTHSPYAQPSSTFDTMSPAPVIPSNTDYPGPHHFEVTFQQSSTAKSATWTYSPLLKKLYCQIAKTCPIQIKVSTPPPPGTAIRAMPVYKKAEHVTDIVKRCPNHELGRDFNEGQSAPASHLIRVEGNNLAQYVDDPVTGRQSVVVPYEPPQVGTEFTTILYNFMCNSSCVGGMNRRPILVIITLETRDGQVLGRRSFEGRICACPGRDRKADEDHYREQQALNESTTKNGAASKRAFKQSPPAIPALGTNVKKRRHGDEDMFYMHVRGRENFEILMKVKESLELMELVPQPLVDSYRQQQQQQLLQRPSHLQPPSYGPVLSPMNKVHGGVNKLPSVNQLVGQPPPHSSAAGPNLGPMGSGMLNSHGHSMPANGEMNGGHSSQTMVSGSHCTPPPPYHADPSLVSFLTGLGCPNCIECFTSQGLQSIYHLQNLTIEDLGALKVPDQYRMTIWRGLQDLKQSHDCGQQLLRSSSNAATISIGGSGELQRQRVMEAVHFRVRHTITIPNRGGAGAVTGPDEWADFGFDLPDCKSRKQPIKEEFTETESH |
